The results in this text go back to PubChem BioAssay AID192 (DTP/NCI, 2004).

This assay has as its system BDF1 mice, B16 melanoma ip, median survival T/C. Put plainly: NCI In Vivo Anticancer Drug Screen. Data for tumor model B16 Melanoma (intraperitoneal) in B6D2F1 (BDF1) mice. The conditions noted are these: T/C endpoint: median survival time, higher T/C = longer survival. An outline of the steps: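 Compounds were tested in mice carrying transplantable tumors. Survival or tumor size was recorded, and each value is the treated-group measurement (T) divided by that of the vehicle-treated control group (C).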

Setting [1] is: dose: 3.12 mg/kg/injection, schedule: Q01DX009 (ip), vehicle: saline.
The mark [2] stands for this setting: dose: 6.25 mg/kg/injection, schedule: Q01DX009 (ip), vehicle: saline.
The mark [3] stands for this setting: dose: 25.0 mg/kg/injection, schedule: Q01DX009 (ip), vehicle: saline with Tween-80.
The mark [4] stands for this setting: dose: 50.0 mg/kg/injection, schedule: Q01DX009 (ip), vehicle: saline with Tween-80.
The mark [5] stands for this setting: dose: 50.0 mg/kg/injection, schedule: Q01DX009 (ip), vehicle: saline.
Where [6] appears, read: dose: 100.0 mg/kg/injection, schedule: Q01DX009 (ip), vehicle: Klucel (hydroxypropylcellulose) (HPC).
[7] abbreviates: dose: 100.0 mg/kg/injection, schedule: Q01DX009 (ip), vehicle: saline with Tween-80.
Where [8] appears, read: dose: 100.0 mg/kg/injection, schedule: Q01DX009 (ip), vehicle: saline.
Where [9] appears, read: dose: 200.0 mg/kg/injection, schedule: Q01DX009 (ip), vehicle: saline.
[10] abbreviates: dose: 400.0 mg/kg/injection, schedule: Q01DX009 (ip), vehicle: saline.
Where [11] appears, read: dose: 400.0 mg/kg/injection, schedule: Q01DX009 (ip), vehicle: Klucel (hydroxypropylcellulose) (HPC).
[12] abbreviates: dose: 200.0 mg/kg/injection, schedule: Q01DX009 (ip), vehicle: saline with Tween-80.
Where [13] appears, read: dose: 8.0 mg/kg/injection, schedule: Q01DX009 (ip), vehicle: saline.
Setting [14] is: dose: 64.0 mg/kg/injection, schedule: Q02DX009 (ip), vehicle: saline.
Where [15] appears, read: dose: 200.0 mg/kg/injection, schedule: Q01DX009 (ip), vehicle: Klucel (hydroxypropylcellulose) (HPC).

The list is a part of this screen's results and no random one: it is rich in T/C values a quarter to a half above the control, in often repeated tests (any T/C) and in doses without a T/C. Other doses and runs of a compound stand elsewhere. T/C: endpoint of the treated group in % of that of the vehicle group. Some doses have a count of surviving animals in place of a T/C: the source files T/C as zero there, which appears to mark a toxic dose or a test without result, not a measured value. Some survivor counts are full or nearly so, which does not show that the dose was tolerated: survival well below the control is almost never listed, so the zero probably covers shortened survival too. Survivors were counted at the toxicity check, usually on the fifth day, unless a day is given; later deaths do not show. Schedules are NCI's codes, read here as Q, the interval in days (D) or hours (H), X, the number of doses. Some entries hold several experiments; their values stand side by side, smallest first. Where survival is the endpoint, this PubChem deposit counts one and a half times the control or more as active, and values a quarter to a half above the control carry no call in these data; other NCI protocols may use other cut-offs. Some T/C values carry the count of animals alive at the toxicity check (mostly the fifth day); where none is given, no animal had died by that day.

As for `COc1ccc2nc3cc(Cl)ccc3c(NCCNCCNCCNc3c4ccc(Cl)cc4nc4ccc(OC)cc34)c2c1`, the T/C is 131 % of control (dose: 3.12 mg/kg/injection, schedule: Q01DX009 (ip), vehicle: saline with Tween-80); 138 % of control under setting [1]; 141 % of control (dose: 6.25 mg/kg/injection, schedule: Q01DX009 (ip), vehicle: saline with Tween-80); 132 % of control under setting [2]; 131 % of control [9 of 10 alive] (dose: 12.5 mg/kg/injection, schedule: Q01DX009 (ip), vehicle: saline with Tween-80); 132 % of control under setting [3]. Also, the T/C is 138 % of control under setting [4] and 133 % of control under setting [5]. Further, the survivor count is given as 7 of 10 under setting [6], 8 of 10 under setting [7] and 3 of 10 under setting [8].

With `COC(=O)[C@@H]1c2cc3c(c(O)c2[C@@H](OC)C[C@@]1(C)O)C(=O)c1c(O)cc2c(c1C3=O)OC1O[C@@]2(C)[C@H](O)[C@@H](N(C)C)[C@@H]1O`, the T/C by setting is: under setting [1], 134 % of control; under setting [2], 130 % of control. In addition, the survivor count reads like this: under setting [8], 3 of 10 and 10 of 10; under setting [9], 0 of 10; under setting [10], 10 of 10.

For the compound `Cn1cnc([N+](=O)[O-])c1Sc1nc(N)nc2c1ncn2C1OC(CO)C(O)C1O` (stereo not given), where the note is “dose: 6.25 mg/kg/injection, schedule: Q01DX009 (ip), vehicle: suspension in saline”, the T/C was 125 % of control. Also, the survivor count under setting [3] was 10 of 10; the survivor count (dose: 25.0 mg/kg/injection, schedule: Q01DX009 (ip), vehicle: suspension in saline) is 10 of 10; the survivor count under setting [4] is recorded as 10 of 10; the survivor count (dose: 50.0 mg/kg/injection, schedule: Q01DX009 (ip), vehicle: suspension in saline) was 10 of 10; the survivor count under setting [7] was 10 of 10.

For `CC(C)C[CH2][Pb]([Cl])([CH2]CC(C)C)[CH2]CC(C)C`, for the setting “dose: 0.25 mg/kg/injection, schedule: Q01DX009 (ip), vehicle: Klucel (hydroxypropylcellulose) (HPC)”, the survivor count is reported as 10 of 10.

On to `[N-]=[N+]=C1Cc2ccccc2C1=O`, for which, under setting [11], the survivor count is reported as 0 of 10.

Turning to `ClC1(c2ccccc2)c2ccc(Br)cc2-c2cc(Br)ccc21`, the survivor count (dose: 400.0 mg/kg/injection, schedule: Q01DX009 (ip), vehicle: saline with Tween-80) is recorded as 6 of 6.

As for `O=C(O)CCNCCO`, the survivor count by setting is: under setting [8], 10 of 10; under setting [9], 9 of 10.

Turning to `Nc1nc(-c2ccccc2)c(Br)c(=O)[nH]1`, the T/C reads like this: under setting [7], 137 % of control; under setting [12], 132 % of control.

Regarding `c1ccc(Cc2ccccc2)cc1`, the survivor count was 9 of 10 and 10 of 10 under setting [4]; 10 of 10 under setting [7]; 10 of 10 under setting [12].

Turning to `CC(C)=CC(=O)OC1C2C(C)=CC(=O)C(O)C2(C)C2C3(O)OCC24C(CC(=O)OC14)C(C)C3O` (stereo not given), the T/C (dose: 0.25 mg/kg/injection, schedule: Q01DX009 (ip), vehicle: saline with Tween-80) is 129 % of control; the T/C (dose: 0.5 mg/kg/injection, schedule: Q01DX009 (ip), vehicle: saline with Tween-80) was 131 % of control [9 of 10 alive]; the T/C (dose: 1.0 mg/kg/injection, schedule: Q01DX009 (ip), vehicle: saline with Tween-80) was 149 % of control [9 of 10 alive]; the T/C (dose: 2.0 mg/kg/injection, schedule: Q01DX009 (ip), vehicle: saline with Tween-80) was 133 % of control.

Take `COc1cc(/C=C/C(N)=O)cc(OC)c1OC`: the survivor count is reported as 10 of 10 under setting [5] and 9 of 10 under setting [10].

`COc1cc(NS(C)(=O)=O)ccc1Nc1c2ccc([N+](=O)[O-])cc2nc2c(C)cccc12`: the T/C is, setting by setting: (dose: 0.3 mg/kg/injection, schedule: Q01DX009 (ip), vehicle: saline with Tween-80) 126 [5 of 6 alive] and 127 % of control; (dose: 1.2 mg/kg/injection, schedule: Q01DX009 (ip), vehicle: saline with Tween-80) 130 % of control.

For the compound `CC1CN1P1(N2CC2C)=NP(N2CC2C)(N2CC2C)=NP(N2CC2C)(N2CC2C)=N1` (stereo not given), the survivor count under setting [1] was 10 of 10; the survivor count under setting [5] was 5 of 10; the survivor count under setting [14] was 10 of 10; the survivor count under setting [8] is given as 10 of 10; the survivor count under setting [9] is reported as 0 of 10. In addition, the T/C was 125 % of control under setting [13]; 128 % of control (dose: 16.0 mg/kg/injection, schedule: Q01DX009 (ip), vehicle: saline); 135 % of control (dose: 32.0 mg/kg/injection, schedule: Q01DX009 (ip), vehicle: saline); 125 and 126 % of control [8 of 10 alive] (dose: 32.0 mg/kg/injection, schedule: Q02DX009 (ip), vehicle: saline); 130 % of control (dose: 64.0 mg/kg/injection, schedule: Q01DX009 (ip), vehicle: saline); 135 % of control under setting [14].

In the case of `C[n+]1cccc(NC(=O)c2ccc(NC(=O)c3ccc(C(=O)Nc4ccc(NC(=N)N)cc4)cc3)cc2)c1`, the T/C (dose: 3.0 mg/kg/injection, schedule: Q01DX009 (ip), vehicle: saline) is 133 % of control. Further, the survivor count was 10 of 10 (dose: 5.0 mg/kg/injection, schedule: Q01DX009 (ip), vehicle: saline); 10 of 10 under setting [13]; 8 of 10 (dose: 12.0 mg/kg/injection, schedule: Q01DX009 (ip), vehicle: saline).

Turning to `CC(=O)Nc1cc(NC(C)=O)cc(N(CCCl)CCCl)c1`, the T/C (dose: 25.0 mg/kg/injection, schedule: Q01DX009 (ip), vehicle: water) was 139 % of control. Besides, the survivor count is recorded as 10 of 10 (dose: 50.0 mg/kg/injection, schedule: Q01DX009 (ip), vehicle: water) and 6 of 10 (dose: 100.0 mg/kg/injection, schedule: Q01DX009 (ip), vehicle: water).

With `CN1C(=O)CCS(=O)(=O)C1c1ccc(Cl)c(Cl)c1` (stereo not given), the survivor count (dose: 0.39 mg/kg/injection, schedule: Q01DX009 (ip), vehicle: Klucel (hydroxypropylcellulose) (HPC)) is recorded as 6 of 10; the survivor count (dose: 0.78 mg/kg/injection, schedule: Q01DX009 (ip), vehicle: Klucel (hydroxypropylcellulose) (HPC)) is reported as 5 of 10; the survivor count (dose: 25.0 mg/kg/injection, schedule: Q01DX009 (ip), vehicle: Klucel (hydroxypropylcellulose) (HPC)) was 10 of 10; the survivor count under setting [6] is on record as 6 of 10; the survivor count under setting [15] is 0 of 10.

Consider `CN(C)N=Nc1ccc(NC(N)=O)cc1`, for which the survivor count was 0 of 10 (dose: 75.0 mg/kg/injection, schedule: Q01DX009 (ip), vehicle: Klucel (hydroxypropylcellulose) (HPC)); 2 of 10 (dose: 150.0 mg/kg/injection, schedule: Q01DX009 (ip), vehicle: Klucel (hydroxypropylcellulose) (HPC)); 0 of 10 (dose: 300.0 mg/kg/injection, schedule: Q01DX009 (ip), vehicle: Klucel (hydroxypropylcellulose) (HPC)).

As for `O=c1[nH]c(=O)n(C2CC(O)C(CO)O2)cc1Br` (stereo not given), the T/C is 126 % of control under setting [6]; 126 % of control under setting [15]; 129 % of control under setting [11]; 125 % of control [9 of 10 alive] (dose: 800.0 mg/kg/injection, schedule: Q01DX009 (ip), vehicle: Klucel (hydroxypropylcellulose) (HPC)).
